Measurements from PMC9958131 (Nature Communications, 2023).
Several values for one entry are separate records, joined by “and”; a condition that tells them apart may be missing. Identical values can stand only once.

Experiments:
cathepsins B, S, and H = test: Proteolytic mapping (ProtMap) of native and citrullinated autoantigens by cathepsins B, S, and H with LFQ-MS; format: biochemical, human; conditions: for # changed residues: cathepsins BSH, pH 5.0, 4 h, 37 °C; for # changed peptides Cr (created) / # changed peptides De (destroyed): q <= 0.05 and >= twofold
Protocol: Prior to proteolytic mapping, citrullinated antigens were generated by incubating recombinant human antigens—hnRNP A2/B1 (RA33; custom-made as previously described by in ref. [24]), fibrinogen (Cayman Chemical), and vimentin (PeproTech)—with Sf9-purified peptidylarginine deiminase 2 or 4 (PAD2 or PAD4; Inova) at a 17:1 mass ratio in citrullination buffer (100 mM Tris, 1 mM DTT, 5 mM CaCl2, pH 7.5) for 4 h at 37 °C. Native antigens were diluted in the same buffer without PAD enzymes and without incubation at 37 °C to prevent degradation. Citrullination was confirmed by anti-peptidylcitrulline (clone F95, EMD Millipore) immunoblotting. Native and citrullinated antigen pools were split into four 15 µg replicates per condition before digestion (except hnRNP A2/B1, which was digested in double-volume replicates of three and later split into two each, total n = 6, prior to MS) by cathepsins B, S, and H (Millipore Sigma). Digestions were incubated in digestion buffer (citrate phosphate buffer, 4 mM DTT, 1 mM EDTA, pH 5.0) for 4 h at 37 °C. Fibrinogen and vimentin were digested at a 60:1 antigen:cathepsin mass ratio per cathepsin, and hnRNP A2/B1 was digested at a 150:1 antigen:cathepsin mass ratio per cathepsin to achieve full digestion of the protein. Digestion was confirmed by Coomassie Blue staining, and the remaining samples were centrifuged through a 10-kDa-spin filter (Microcon, Millipore) to remove undigested protein fragments. The resulting peptide repertoires were then analyzed by LFQ–MS.
Prior to MS, the samples were reduced and alkylated by incubating in 10 mM Tris (2-Carboxyethyl) phosphine hydrochloride (TCEP, v/v) and 50 mM chloroacetamide (CAA, v/v) for 1 h at room temperature. The samples were then desalted using C18 StageTips (3 M Empore) after acidifying with 1% trifluoroacetic acid (TFA). The peptide solution was vacuum-dried and stored at ‒80 °C. The peptide samples were analyzed on an Orbitrap Fusion Lumos Tribrid mass spectrometer interfaced with an Ultimate 3000 RS Autosampler nanoflow liquid chromatography system (Thermo Scientific). The dried peptides were reconstituted in 15 µL of 0.5% formic acid (FA) and then loaded onto a trap column (Acclaim™ PepMap™ 100 LC C18, 5 μm, 100 μm × 2 cm, Thermo Scientific) at a flow rate of 8 μL/min. Peptides were separated on an analytical column (Easy-Spray™ PepMap™ RSLC C18, 2 μm, 75 μm × 50 cm, Thermo Scientific) at a flow rate of 0.3 μL/min using a linear gradient with mobile phases consisting of 0.1% FA in water and in 95% acetonitrile (ACN) for 120 min. The mass spectrometer was operated in data-dependent acquisition (DDA) mode. The MS1 (precursor ions) scan range for a full survey scan was acquired from 300 to 1800 m/z in the top speed setting with a resolution of 120,000 at an m/z of 200. The AGC target for MS1 was set as 1 × 10^6, and the maximum injection time was 100 milliseconds. The most intense ions with charge states of 2–5 were isolated in a 3-s cycle, fragmented using higher-energy collisional dissociation (HCD) fragmentation with 32% normalized collision energy, and detected at a mass resolution of 50,000 at an m/z of 200. The AGC target for MS/MS (fragments) was set as 5 × 10^4, and the ion filling time was 100 milliseconds. The precursor isolation window was set to 1.6 m/z with a 0.4 m/z offset. The dynamic exclusion was set to 30 s, and singly charged ions were rejected. Internal calibration was carried out using the lock mass option (m/z 445.1200025) from ambient air[59]–[61].
Proteome Discoverer (version 2.4.1.15, Thermo Scientific) was used for the identification and quantitation of proteins. During MS/MS preprocessing, the top 10 peaks in each window of 100 m/z were selected for database search. […]

recombinant human PAD2 = test: Citrullination site mapping by mass spectrometry after PAD2 citrullination; format: biochemical; conditions: PAD2 condition
recombinant human PAD4 = test: Citrullination site mapping by mass spectrometry after PAD4 citrullination; format: biochemical; conditions: PAD4 condition
[1] = share of sequence citrullinated

“Vimentin: recombinant human vimentin (PeproTech), RA autoantigen; native or citrullinated by PAD2 or PAD4” was tested, and the “Change Score - PAD2” value (cathepsins B, S, and H; Fig. 3e, native vs PAD2-citrullinated protein) was 53.9634, the “Change Score - PAD4” value (cathepsins B, S, and H; Fig. 3e, native vs PAD4-citrullinated protein) was 21.7391 and the “changed peptides (%) Cr (created)” value (cathepsins B, S, and H; PAD2-citrullinated vs native) was 42.38%. For the same substance, the “changed peptides (%) De (destroyed)” value (cathepsins B, S, and H; PAD2-citrullinated vs native) was 11.59%, the “changed residues (%)” value (cathepsins B, S, and H; PAD2-citrullinated vs native) was 36.48% and the “# changed residues” value (cathepsins B, S, and H; PAD2-citrullinated vs native) was 170.00. For the same substance, the “# changed peptides Cr (created)” value (cathepsins B, S, and H; PAD2-citrullinated vs native) was 139, the “# changed peptides De (destroyed)” value (cathepsins B, S, and H; PAD2-citrullinated vs native) was 38 and the “changed peptides (%) Cr (created)” value (cathepsins B, S, and H; PAD4-citrullinated vs native) was 17.08%. For the same substance, the “changed peptides (%) De (destroyed)” value (cathepsins B, S, and H; PAD4-citrullinated vs native) was 4.66%, the “changed residues (%)” value (cathepsins B, S, and H; PAD4-citrullinated vs native) was 18.67% and the “# changed residues” value (cathepsins B, S, and H; PAD4-citrullinated vs native) was 87.00. For the same substance, the “# changed peptides Cr (created)” value (cathepsins B, S, and H; PAD4-citrullinated vs native) was 55, the “# changed peptides De (destroyed)” value (cathepsins B, S, and H; PAD4-citrullinated vs native) was 15 and the “PAD2 change score (antigen processing change score)” value (cathepsins B, S, and H; percentage of all ProtMap peptides significantly changed between native and PAD2-citrullinated samples) was 53.96 and 53.9634. For the same substance, the “PAD4 change score (antigen processing change score)” value (cathepsins B, S, and H; percentage of all ProtMap peptides significantly changed between native and PAD4-citrullinated samples) was 21.74 and 21.7391, the “# citrulline residues” value (recombinant human PAD2) was 26 and the “citrullination (%)” value (recombinant human PAD2; [1]) was 5.58%. For the same substance, the “# citrulline residues” value (recombinant human PAD4) was 30 and the “citrullination (%)” value (recombinant human PAD4; [1]) was 6.44%.
